Results reported in patent US20200016134A1, “COMPOSITIONS AND METHODS FOR TREATING SUBSTANCE ABUSE DISORDERS” (EMBERA NEUROTHERAPEUTICS, INC., priority 2016, published 2020).

Compound: O=C1Nc2ccc(Cl)cc2C(c2ccccc2)=NC1O (centres unmarked) [oxazepam]
- influence of metyrapone and oxazepam on plasma concentrations of each other (ip, rats, FIG. 14): did not influence plasma concentrations of each other
- effect of the presence of cocaine on the plasma concentration of the drug (iv cocaine 0.25 mg/kg/infusion every 2 minutes for 1 hour): did not affect
